{
  "sequences": {"note": "Chains of the proteins cited; added tags and fusions are not shown.", "UniProt P78347": "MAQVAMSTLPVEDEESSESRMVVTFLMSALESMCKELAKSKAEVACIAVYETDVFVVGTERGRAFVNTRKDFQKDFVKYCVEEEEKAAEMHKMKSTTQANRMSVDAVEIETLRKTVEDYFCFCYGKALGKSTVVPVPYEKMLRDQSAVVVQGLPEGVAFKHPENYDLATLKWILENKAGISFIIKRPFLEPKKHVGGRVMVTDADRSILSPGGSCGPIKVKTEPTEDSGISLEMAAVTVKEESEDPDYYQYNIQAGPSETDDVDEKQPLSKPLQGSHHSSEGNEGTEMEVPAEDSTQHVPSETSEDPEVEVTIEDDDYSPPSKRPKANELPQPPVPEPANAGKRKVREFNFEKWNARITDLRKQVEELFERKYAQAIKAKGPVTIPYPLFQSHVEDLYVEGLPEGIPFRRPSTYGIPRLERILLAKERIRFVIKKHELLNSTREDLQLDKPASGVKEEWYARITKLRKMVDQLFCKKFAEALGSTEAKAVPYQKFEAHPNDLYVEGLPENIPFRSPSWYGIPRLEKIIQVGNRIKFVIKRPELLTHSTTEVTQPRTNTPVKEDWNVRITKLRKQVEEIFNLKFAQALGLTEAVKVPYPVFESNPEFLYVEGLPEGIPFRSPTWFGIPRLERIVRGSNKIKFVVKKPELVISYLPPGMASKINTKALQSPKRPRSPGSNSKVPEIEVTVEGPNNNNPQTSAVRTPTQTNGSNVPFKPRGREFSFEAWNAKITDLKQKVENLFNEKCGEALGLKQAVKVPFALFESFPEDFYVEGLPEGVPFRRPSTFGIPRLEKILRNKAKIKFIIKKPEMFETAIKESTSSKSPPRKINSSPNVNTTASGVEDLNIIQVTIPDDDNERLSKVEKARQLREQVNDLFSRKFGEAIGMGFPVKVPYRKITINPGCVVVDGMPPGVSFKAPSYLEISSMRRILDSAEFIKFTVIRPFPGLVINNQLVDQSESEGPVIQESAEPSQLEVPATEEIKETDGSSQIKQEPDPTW", "UniProt Q00987": "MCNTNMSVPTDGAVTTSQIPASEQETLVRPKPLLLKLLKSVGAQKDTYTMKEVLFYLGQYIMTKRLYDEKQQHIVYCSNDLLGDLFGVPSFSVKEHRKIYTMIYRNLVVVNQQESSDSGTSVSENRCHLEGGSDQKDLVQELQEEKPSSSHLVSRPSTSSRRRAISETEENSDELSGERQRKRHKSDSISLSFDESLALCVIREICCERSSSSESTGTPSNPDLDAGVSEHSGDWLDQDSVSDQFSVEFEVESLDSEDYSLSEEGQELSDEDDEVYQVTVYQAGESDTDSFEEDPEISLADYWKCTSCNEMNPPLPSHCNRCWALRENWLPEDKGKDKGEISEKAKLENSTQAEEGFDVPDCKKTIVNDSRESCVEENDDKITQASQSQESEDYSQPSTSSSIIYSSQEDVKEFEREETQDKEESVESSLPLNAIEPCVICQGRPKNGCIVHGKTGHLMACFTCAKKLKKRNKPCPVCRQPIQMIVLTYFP"},
  "source": "paper PMC4676684",
  "key": {"[1]": {"biological_target": "endogenous TFII-I (H1299 cells) (human (endogenous in H1299)) (UniProt P78347)", "assay": "co-IP; endogenous proteins, eight confluent 100-mm dishes of H1299 cells; Triton X-100 lysis buffer; IP 2 h at 4°C with anti-Mdm2 (HDM2-323) or mouse anti-TFII-I, protein G-Sepharose; anti-tubulin α as negative control; Western blot"}, "[2]": {"biological_target": "endogenous Mdm2 (H1299 cells) (human (endogenous in H1299)) (UniProt Q00987)", "assay": "co-IP; endogenous proteins, eight confluent 100-mm dishes of H1299 cells; Triton X-100 lysis buffer; IP 2 h at 4°C with anti-Mdm2 (HDM2-323) or mouse anti-TFII-I, protein G-Sepharose; anti-tubulin α as negative control; Western blot"}, "[3]": {"biological_target": "wild-type human Mdm2 (ectopically over-expressed in HEK293T cells) (human) (UniProt Q00987)", "assay": "co-IP; HEK293T cells transfected with Mdm2, MG132 15 uM for 4 h; 1% Triton X-100, 150 mM NaCl, 50 mM Tris pH 8.0 lysate; IP with anti-Mdm2 Ab-1 overnight at 4°C, protein G-Sepharose; Western blot for TFII-I"}},
  "note": "Results are given in words; binding and its absence hold for the method and conditions named. In cells and extracts the contact can be indirect. Some results given as binding are weak or reduced against the parent protein; the word gives no strength.",
  "data": [
    {"substance": "endogenous Mdm2 (H1299 cells) (from UniProt Q00987 1-491)", "values": [
      {"measurement": "binding", "setting": "[1]", "result": "binds"}
    ]},
    {"substance": "endogenous TFII-I (H1299 cells) (from UniProt P78347 1-998)", "values": [
      {"measurement": "binding", "setting": "[2]", "result": "binds"}
    ]},
    {"substance": "endogenous TFII-I protein (HEK293T cells) (from UniProt P78347 1-998)", "values": [
      {"measurement": "binding", "setting": "[3]", "result": "binds"}
    ]}
  ]
}
